No constants are given. Whether binding was seen depends on the method and setting. Some entries that bind do so weakly or less than the wild type.
Tests used:
[1] = target: T1, C3b (UniProt P01024 749-1663; P01024 23-667); experiment: SPR, affinity determination on deposited C3b
T1 construct: Immobilised on a CM5 chip; A small amount was amine-coupled and the majority deposited via the reactive thioester by on-chip AP convertase; also called complement fragment C3b; deposited C3b

Chains of the proteins cited; added tags and fusions are not shown. Lines headed by an entry give the natural chain unless they say otherwise; changes in a name come on top. Residues count along the entry.
UniProt P01024: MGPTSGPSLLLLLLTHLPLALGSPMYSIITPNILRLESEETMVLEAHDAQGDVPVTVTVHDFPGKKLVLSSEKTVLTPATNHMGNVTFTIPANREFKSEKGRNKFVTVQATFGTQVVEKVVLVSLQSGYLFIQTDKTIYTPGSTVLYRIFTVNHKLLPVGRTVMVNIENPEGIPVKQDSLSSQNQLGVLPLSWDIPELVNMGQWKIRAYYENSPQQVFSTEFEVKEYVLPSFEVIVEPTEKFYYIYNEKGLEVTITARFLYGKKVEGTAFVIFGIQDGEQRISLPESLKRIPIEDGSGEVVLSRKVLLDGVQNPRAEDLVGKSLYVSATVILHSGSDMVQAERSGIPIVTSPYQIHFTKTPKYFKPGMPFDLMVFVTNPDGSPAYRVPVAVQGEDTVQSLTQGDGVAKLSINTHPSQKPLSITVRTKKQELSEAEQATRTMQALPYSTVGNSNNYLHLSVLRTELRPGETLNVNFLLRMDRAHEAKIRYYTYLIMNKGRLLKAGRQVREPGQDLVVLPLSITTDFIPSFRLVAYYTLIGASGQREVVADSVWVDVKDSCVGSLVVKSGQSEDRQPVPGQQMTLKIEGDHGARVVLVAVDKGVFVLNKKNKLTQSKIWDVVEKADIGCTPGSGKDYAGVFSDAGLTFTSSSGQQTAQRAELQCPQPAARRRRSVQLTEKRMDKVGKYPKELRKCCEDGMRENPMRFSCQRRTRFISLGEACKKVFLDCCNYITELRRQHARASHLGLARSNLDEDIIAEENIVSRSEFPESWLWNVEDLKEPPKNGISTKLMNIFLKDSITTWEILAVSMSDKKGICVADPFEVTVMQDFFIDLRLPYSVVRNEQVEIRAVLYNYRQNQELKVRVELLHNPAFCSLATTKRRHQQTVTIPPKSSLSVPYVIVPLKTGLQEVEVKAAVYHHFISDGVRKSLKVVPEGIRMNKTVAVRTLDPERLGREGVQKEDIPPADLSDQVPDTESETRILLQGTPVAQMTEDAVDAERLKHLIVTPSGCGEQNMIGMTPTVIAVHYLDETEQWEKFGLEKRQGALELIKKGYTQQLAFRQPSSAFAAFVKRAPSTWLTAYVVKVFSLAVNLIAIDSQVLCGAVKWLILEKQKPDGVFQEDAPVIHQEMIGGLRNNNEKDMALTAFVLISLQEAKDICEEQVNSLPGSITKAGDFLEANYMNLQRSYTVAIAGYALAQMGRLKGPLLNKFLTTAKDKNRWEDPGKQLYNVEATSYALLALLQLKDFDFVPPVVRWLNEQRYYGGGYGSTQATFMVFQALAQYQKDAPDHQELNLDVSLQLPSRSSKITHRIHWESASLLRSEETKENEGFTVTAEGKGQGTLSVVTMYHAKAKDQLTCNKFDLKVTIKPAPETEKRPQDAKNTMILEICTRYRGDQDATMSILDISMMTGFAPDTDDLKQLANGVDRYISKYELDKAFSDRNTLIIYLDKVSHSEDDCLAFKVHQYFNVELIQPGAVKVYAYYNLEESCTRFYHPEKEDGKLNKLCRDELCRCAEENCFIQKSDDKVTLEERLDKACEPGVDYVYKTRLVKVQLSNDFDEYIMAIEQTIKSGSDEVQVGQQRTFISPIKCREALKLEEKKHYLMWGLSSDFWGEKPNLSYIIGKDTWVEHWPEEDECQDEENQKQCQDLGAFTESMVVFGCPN
UniProt P08603, residues 19-264: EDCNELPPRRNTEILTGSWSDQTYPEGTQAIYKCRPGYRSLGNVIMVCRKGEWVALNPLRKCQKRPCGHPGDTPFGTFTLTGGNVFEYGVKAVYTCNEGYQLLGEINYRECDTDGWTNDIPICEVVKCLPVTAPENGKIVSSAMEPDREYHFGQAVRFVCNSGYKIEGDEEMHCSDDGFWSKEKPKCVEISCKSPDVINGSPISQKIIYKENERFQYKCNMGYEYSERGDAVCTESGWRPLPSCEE

[2] = target: T1, C3b; experiment: SPR, fitted affinity curves for C3b normalised to Rmax

binding [1]: binds
binding [2]: binds
Substance: FH1-4 (from UniProt P08603 19-264)

Source: patent US20150110766A1 (UNIVERSITY ULM, published 2015)
